According to the supplement of paper PMC10689618:
Counter-ions that a name gives are not always drawn. The list shows a part of the results. Single values are uncertain, as repeats are few or missing.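 Primary human fetal astrocytes engulfed labelled rat cortical synaptosomes, measured as a red/green ratio corrected for calcein live-cell signal and scaled to the plate median. Toxicity meant calcein falling over 30%; decreased phagocytosis meant below 70% of median above 5 µM.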

Tests used:
Human fetal astrocytes [1] = assay: loss of total cells relative to no-compound high-control median (toxicity); higher = more toxic (fewer cells); conditions: 24 h
Human fetal astrocytes [2] = assay: synaptosome phagocytosis (pHrodo/calcein intensity ratio) relative to plate median of data wells; higher = more phagocytosis; conditions: 24 h

Compound | loss of total cells (Human fetal astrocytes [1]; 1.39 µM) [%] | loss of total cells (Human fetal astrocytes [1]; 2.78 µM) [%] | loss of total cells (Human fetal astrocytes [1]; 5.56 µM) [%] | loss of total cells (Human fetal astrocytes [1]; 11.11 µM) [%] | loss of total cells (Human fetal astrocytes [1]; 22.22 µM) [%] | synaptosome phagocytosis (Human fetal astrocytes [2]; 1.39 µM) [%] | synaptosome phagocytosis (Human fetal astrocytes [2]; 2.78 µM) [%] | synaptosome phagocytosis (Human fetal astrocytes [2]; 5.56 µM) [%] | synaptosome phagocytosis (Human fetal astrocytes [2]; 11.11 µM) [%] | synaptosome phagocytosis (Human fetal astrocytes [2]; 22.22 µM) [%]
CC(C)(C)c1cc(/C=C(\C#N)C(N)=S)cc(C(C)(C)C)c1O [Tyrphostin AG 879] | -17.7 | -30.8 | -3.9 | -1.1 | 24.7 | 114 | 115 | 112 | 93.8 | 64
CC(=O)O[C@]1(C(C)=O)CC[C@H]2[C@@H]3C=C(Cl)C4=CC(=O)[C@@H]5C[C@@H]5[C@]4(C)[C@H]3CC[C@@]21C [Cyproterone acetate] | -1.5 | 7.2 | -16.1 | -17.5 | -7.1 | 151 | 113 | 107 | 94.3 | 109
CC(=O)S[C@@H]1CC2=CC(=O)CC[C@]2(C)[C@H]2CC[C@@]3(C)[C@@H](CC[C@@]34CCC(=O)O4)[C@H]12 [Spironolactone] | -27.6 | -28.4 | -15.2 | -21.8 | -28 | 79.9 | 80.7 | 87.7 | 125 | 90.3
CCCCCCCCCCCCCCCC(=O)NCCO [Palmitoylethanolamide] | 3.3 | -5.9 | 16.4 | 8.6 | 14 | 122 | 97.5 | 100 | 136 | 124
CCn1cc(C(=O)O)c(=O)c2ccc(Cc3ccccc3)nc21 [Amfonelic acid] | -9.6 | -4.3 | 10.7 | -13.9 | -2.4 | 92.1 | 89.7 | 119 | 124 | 146
Oc1ncnc2[nH]ncc12 [Allopurinol] | 0.4 | -17.7 | -15.2 | -6.7 | -1.9 | 141 | 130 | 95.2 | 99.7 | 139
Cc1ccccc1/C=C/C1=NCCN1 [Metrazoline oxalate] | -11.8 | -10.4 | 4.2 | -3.8 | -0.9 | 108 | 98.1 | 92.1 | 101 | 84
NCCCCCCCCCCN [1,10-Diaminodecane] | -2.1 | -11.1 | 4.1 | -11.2 | 13.6 | 94.7 | 111 | 90.9 | 94.5 | 120
COc1ccccc1N1CCN(CCN2C(=O)CC3(CCCC3)CC2=O)CC1 [BMY 7378 dihydrochloride] | -23.9 | -13.2 | -16.1 | -17.5 | -3.4 | 103 | 98.5 | 95.1 | 115 | 94.3
CN(CCOc1ccc(C[C@H](Nc2ccccc2C(=O)c2ccccc2)C(=O)O)cc1)c1ccccn1 | 9.6 | -24.8 | 0 | -19.3 | -20 | 90.5 | 136 | 137 | 124 | 102
N[C@H](C(=O)O)[C@H]1C[C@@H]1C(=O)O [(2S,1'S,2'S)-2-(carboxycyclopropyl)glycine] | -6.3 | -14.5 | -2.5 | -3.1 | 0 | 104 | 90.9 | 118 | 118 | 99.1
COc1cc(/C=C(\C#N)C(=O)c2ccc(O)c(O)c2)cc(I)c1O [I-OMe-Tyrphostin AG 538] | -11.5 | -15.9 | 2.2 | -24.9 | 0.8 | 95.3 | 111 | 116 | 126 | 108
O=C(O)c1cc(O)c2ccc(Cl)cc2n1 [7-Chlorokynurenic acid] | 11.3 | -11.1 | 4.9 | -2.2 | 12.8 | 92.6 | 86.1 | 84.5 | 122 | 103
O=c1[nH]c(=O)n([C@H]2C[C@H](O)[C@@H](CO)O2)cc1Br [5-Bromo-2'-deoxyuridine] | -13.6 | -14.7 | -12.4 | -25.6 | -1.1 | 104 | 124 | 108 | 102 | 110
O=c1ccc2c(OCCCCc3ccccc3)c3ccoc3cc2o1 [Psora-4] | -12.8 | -22.3 | -23.5 | -22 | 4.9 | 88.5 | 114 | 69.8 | 99.9 | 95.6
O=[N+]([O-])c1ccc(CSc2ncnc3c2ncn3[C@@H]2O[C@H](CO)[C@@H](O)[C@H]2O)cc1 [S-(4-Nitrobenzyl)-6-thioinosine] | -10.9 | -6.8 | 6.1 | 14.3 | -6.5 | 115 | 92.4 | 110 | 95.1 | 105
CCn1ccnc1CC1COc2ccccc2O1 (stereo not given) [Imiloxan hydrochloride] | -16.6 | 8.6 | 0.5 | 14.3 | 13.1 | 78.2 | 57.3 | 66.9 | 113 | 68.6
C[C@]12C[C@H](O)[C@H]3[C@@H](CCC4=CC(=O)CC[C@@]43C)[C@@H]1CC[C@@H]2C(=O)CO [Corticosterone] | -22 | -22 | -25.3 | 1.3 | 5.6 | 63.9 | 84.5 | 80.6 | 87.7 | 72
Cc1cc(C)c(/C=C2\C(=O)Nc3ccccc32)[nH]1 | -18.3 | -30.2 | -14 | -0.4 | -43.6 | 70.6 | 78.6 | 68.5 | 79.7 | 58.6
CC(C)N(CCC(=O)c1ccc2ccccc2c1)Cc1ccccc1 | -8.1 | 5.9 | 20.2 | 29.5 | 33.6 | 85 | 122 | 137 | 91.6 | 101

Quoted from the results shown, 10 compounds:
Compound | loss of total cells (Human fetal astrocytes [1]; 1.39 µM) [%] | loss of total cells (Human fetal astrocytes [1]; 2.78 µM) [%] | loss of total cells (Human fetal astrocytes [1]; 5.56 µM) [%] | loss of total cells (Human fetal astrocytes [1]; 11.11 µM) [%] | loss of total cells (Human fetal astrocytes [1]; 22.22 µM) [%] | synaptosome phagocytosis (Human fetal astrocytes [2]; 1.39 µM) [%] | synaptosome phagocytosis (Human fetal astrocytes [2]; 2.78 µM) [%] | synaptosome phagocytosis (Human fetal astrocytes [2]; 5.56 µM) [%] | synaptosome phagocytosis (Human fetal astrocytes [2]; 11.11 µM) [%] | synaptosome phagocytosis (Human fetal astrocytes [2]; 22.22 µM) [%]
N[C@H](C(=O)O)[C@H]1C[C@@H]1C(=O)O [(2S,1'S,2'S)-2-(carboxycyclopropyl)glycine] | -6.3 | -14.5 | -2.5 | -3.1 | 0 | 104 | 90.9 | 118 | 118 | 99.1
COc1cc(/C=C(\C#N)C(=O)c2ccc(O)c(O)c2)cc(I)c1O [I-OMe-Tyrphostin AG 538] | -11.5 | -15.9 | 2.2 | -24.9 | 0.8 | 95.3 | 111 | 116 | 126 | 108
O=C(O)c1cc(O)c2ccc(Cl)cc2n1 [7-Chlorokynurenic acid] | 11.3 | -11.1 | 4.9 | -2.2 | 12.8 | 92.6 | 86.1 | 84.5 | 122 | 103
O=c1[nH]c(=O)n([C@H]2C[C@H](O)[C@@H](CO)O2)cc1Br [5-Bromo-2'-deoxyuridine] | -13.6 | -14.7 | -12.4 | -25.6 | -1.1 | 104 | 124 | 108 | 102 | 110
O=c1ccc2c(OCCCCc3ccccc3)c3ccoc3cc2o1 [Psora-4] | -12.8 | -22.3 | -23.5 | -22 | 4.9 | 88.5 | 114 | 69.8 | 99.9 | 95.6
O=[N+]([O-])c1ccc(CSc2ncnc3c2ncn3[C@@H]2O[C@H](CO)[C@@H](O)[C@H]2O)cc1 [S-(4-Nitrobenzyl)-6-thioinosine] | -10.9 | -6.8 | 6.1 | 14.3 | -6.5 | 115 | 92.4 | 110 | 95.1 | 105
CCn1ccnc1CC1COc2ccccc2O1 (stereo not given) [Imiloxan hydrochloride] | -16.6 | 8.6 | 0.5 | 14.3 | 13.1 | 78.2 | 57.3 | 66.9 | 113 | 68.6
C[C@]12C[C@H](O)[C@H]3[C@@H](CCC4=CC(=O)CC[C@@]43C)[C@@H]1CC[C@@H]2C(=O)CO [Corticosterone] | -22 | -22 | -25.3 | 1.3 | 5.6 | 63.9 | 84.5 | 80.6 | 87.7 | 72
Cc1cc(C)c(/C=C2\C(=O)Nc3ccccc32)[nH]1 | -18.3 | -30.2 | -14 | -0.4 | -43.6 | 70.6 | 78.6 | 68.5 | 79.7 | 58.6
CC(C)N(CCC(=O)c1ccc2ccccc2c1)Cc1ccccc1 | -8.1 | 5.9 | 20.2 | 29.5 | 33.6 | 85 | 122 | 137 | 91.6 | 101

Remaining list, next part:

Compound | loss of total cells (Human fetal astrocytes [1]; 1.39 µM) [%] | loss of total cells (Human fetal astrocytes [1]; 2.78 µM) [%] | loss of total cells (Human fetal astrocytes [1]; 5.56 µM) [%] | loss of total cells (Human fetal astrocytes [1]; 11.11 µM) [%] | loss of total cells (Human fetal astrocytes [1]; 22.22 µM) [%] | synaptosome phagocytosis (Human fetal astrocytes [2]; 1.39 µM) [%] | synaptosome phagocytosis (Human fetal astrocytes [2]; 2.78 µM) [%] | synaptosome phagocytosis (Human fetal astrocytes [2]; 5.56 µM) [%] | synaptosome phagocytosis (Human fetal astrocytes [2]; 11.11 µM) [%] | synaptosome phagocytosis (Human fetal astrocytes [2]; 22.22 µM) [%]
CN/C(=N\c1ccc(C2=NNC(=O)CC2C)cc1)NC#N (stereo not given) | -10.9 | -4.5 | -2.2 | -14.9 | -38.7 | 106 | 97.5 | 105 | 99.2 | 114
CCC(C)N(C)C(=O)c1cc2ccccc2c(-c2ccccc2Cl)n1 (stereo not given) | -30.5 | -12 | -6 | -10.3 | 3.4 | 86.1 | 97.3 | 89.5 | 103 | 105
COc1cc(C(O)CO)ccc1OS(=O)(=O)O (stereo not given) [MHPG sulfate potassium] | 3.8 | -15.4 | -2.5 | -4.9 | 0.8 | 81 | 75.1 | 120 | 96.7 | 95.5
CCCCNc1c(C(=O)OCC)c(C)nc2c1cnn2CC [Tracazolate] | -26.4 | -24.9 | -10.7 | -6.5 | 0.8 | 118 | 88.7 | 121 | 119 | 108
O=C1Nc2ccc(I)cc2/C1=C/c1cc(Br)c(O)c(Br)c1 | 2.1 | -17.9 | 3.3 | 6.7 | 32.8 | 96.1 | 82.7 | 83.4 | 58.3 | 67.1
Oc1ccc([C@@H]2CNCc3sccc32)cc1O | -5.3 | -26 | -18.5 | -31.8 | -28 | 110 | 93.4 | 93.2 | 86.6 | 52.8
O=C(O)C1CCNCC1 [Isonipecotic acid] | -12.8 | -14 | -0.5 | 10.5 | 1.9 | 129 | 130 | 116 | 112 | 91.1
CN/C(=N\CCSCc1nc[nH]c1C)NC#N [Cimetidine] | -4.4 | -6.9 | -17.1 | 2.2 | -4.9 | 215 | 120 | 122 | 121 | 92.5
N=C(NC(=O)c1nc(Cl)c(N)nc1N)Nc1ccccc1 [Phenamil methanesulfonate] | -20.8 | -23.1 | -13.5 | -19.5 | -16.5 | 80.1 | 62.3 | 68.4 | 82.8 | 58.5
Nc1nc(OCc2ccccc2)c2nc[nH]c2n1 [O6-benzylguanine] | -7.3 | -0.6 | -6 | 0.4 | -3.4 | 127 | 99.2 | 100 | 128 | 99.6
Clc1ccc(C(c2ccc(Cl)cc2)[n+]2ccn(CC(OCc3ccc(Cl)cc3Cl)c3ccc(Cl)cc3Cl)c2)cc1 (stereo not given) [Calmidazolium chloride] | -1.8 | -14.7 | -36.4 | -3.1 | 65.8 | 110 | 111 | 88.8 | 75.1 | 58.5
CN(C)CCC=C1c2ccccc2COc2ccccc21 [Doxepin hydrochloride] | -5.4 | -21.4 | -6.6 | -2.2 | -1.6 | 128 | 103 | 104 | 131 | 86.1
O=C(O)/C=C/C(O)c1ccc(Cl)cc1 (stereo not given) | -11.8 | -15.8 | -4.2 | -20 | -3.7 | 96.7 | 96.8 | 110 | 90.5 | 128
O=C(O)C1=CCCNC1 [Guvacine hydrochloride] | -0.4 | -12 | -6.6 | -9.4 | 8 | 114 | 124 | 104 | 112 | 116
Nn1nnc2ccccc21 [1-Aminobenzotriazole] | -9.5 | -4.5 | -14.3 | 7.6 | 5.6 | 103 | 99 | 102 | 77.5 | 111
CNc1ncnc2c1ncn2[C@H]1C[C@H](OP(=O)(O)O)[C@@H](COP(=O)(O)O)O1 | 10 | -5.9 | 14.6 | 17.1 | 12.1 | 140 | 96.9 | 92.7 | 110 | 132
CC(CCc1ccccc1)NCC(O)c1ccc(O)c(C(N)=O)c1 (stereo not given) [Labetalol hydrochloride] | 26.1 | 13.1 | 20.2 | 18.1 | 29.9 | 51.5 | 48.1 | 71.2 | 42.5 | 44.9
CC1CNCCN1S(=O)(=O)c1cccc2cnccc12 (stereo not given) | 4.3 | -6.8 | 4.2 | 30.5 | 6.5 | 116 | 102 | 112 | 132 | 95
N#CC(=C(/N)Sc1ccccc1N)/C(C#N)=C(/N)Sc1ccccc1N | -11.5 | -18.9 | -18.5 | -8.8 | -23.9 | 96.9 | 109 | 105 | 97.6 | 65.5
O=C(Nc1cccc(C(=O)Nc2ccc(S(=O)(=O)O)c3cc(S(=O)(=O)O)cc(S(=O)(=O)O)c23)c1)Nc1cccc(C(=O)Nc2ccc(S(=O)(=O)O)c3cc(S(=O)(=O)O)cc(S(=O)(=O)O)c23)c1 | -14.7 | -1.4 | -3.3 | 3.8 | 9.3 | 108 | 128 | 160 | 152 | 201
